The record followed here is PMC3412845, “Waking Action of Ursodeoxycholic Acid (UDCA) Involves Histamine and GABAA Receptor Block” (PLoS ONE, 2012).

This experiment deals with GABAA receptors of HDC−/− TMN neurons. The experiment in a line: GABA-evoked whole-cell currents in TMN neurons from HDC−/− mice. It is filed as cell-based, mouse. The following applies: read-out: GABA potency EC50; adult HDC−/− mice, n = 15. Here is the method:
Recordings from histaminergic neurons in male Wistar rat (22–26 day old) or 30–60 day old mouse (SV129, histidine decarboxylase deficient HDC−/− or their wild type littermates) hypothalamic slices were performed as previously described. Slices were obtained between 9 and 11 a.m. In the beginning of whole-cell voltage clamp recordings TMN neurons were identified with the help of DIC microscopy and electrophysiological criteria as previously described. Inhibitory postsynaptic currents (IPSCs) were evoked by local stimulation through a bipolar stainless-steel stimulating electrode (50 µm; WPI, UK). The stimulation of axonal endings coming to TMN from ventrolateral preoptic area (VLPO) was done as described in [22]. […] Individual neurons were separated by vibrodissociation after brief preincubation with papain from the hypothalamic slices of mice or rats and identified as TMN neurons according to their size and shape. Identification was confirmed post hoc with the single-cell RT-PCR (all data presented in the manuscript were obtained from histidine decarboxylase-expressing neurons), [40]. TMN neurons from HDC−/− mice were identified by the expression of peripherin [16]. […] Membrane potentials were not corrected for liquid junction potential (5.6 mV, calculated with LJPCalc, Barry, 1994). […]

In the case of `NCCCC(=O)O` [GABA], the concentration giving a half-maximal response (EC50) (usually the concentration needed to bring the measured effect to its halfway point) turned out to be 15.6 ± 5 µM.
